Results are given in words; binding and its absence hold for the method and conditions named. In cells and extracts the contact can be indirect. Some binding calls cover weakened binding; strength is not graded here.
Target: Toll-7^ecto (ectodomain of Drosophila Toll-7), V5-tagged (Drosophila melanogaster) (UniProt Q7KIN0)
Assay: co-IP

By UniProt entry, the sequences of proteins in these tests, tags left out. Residues count along the entry.
UniProt Q7KIN0, residues 17-1049: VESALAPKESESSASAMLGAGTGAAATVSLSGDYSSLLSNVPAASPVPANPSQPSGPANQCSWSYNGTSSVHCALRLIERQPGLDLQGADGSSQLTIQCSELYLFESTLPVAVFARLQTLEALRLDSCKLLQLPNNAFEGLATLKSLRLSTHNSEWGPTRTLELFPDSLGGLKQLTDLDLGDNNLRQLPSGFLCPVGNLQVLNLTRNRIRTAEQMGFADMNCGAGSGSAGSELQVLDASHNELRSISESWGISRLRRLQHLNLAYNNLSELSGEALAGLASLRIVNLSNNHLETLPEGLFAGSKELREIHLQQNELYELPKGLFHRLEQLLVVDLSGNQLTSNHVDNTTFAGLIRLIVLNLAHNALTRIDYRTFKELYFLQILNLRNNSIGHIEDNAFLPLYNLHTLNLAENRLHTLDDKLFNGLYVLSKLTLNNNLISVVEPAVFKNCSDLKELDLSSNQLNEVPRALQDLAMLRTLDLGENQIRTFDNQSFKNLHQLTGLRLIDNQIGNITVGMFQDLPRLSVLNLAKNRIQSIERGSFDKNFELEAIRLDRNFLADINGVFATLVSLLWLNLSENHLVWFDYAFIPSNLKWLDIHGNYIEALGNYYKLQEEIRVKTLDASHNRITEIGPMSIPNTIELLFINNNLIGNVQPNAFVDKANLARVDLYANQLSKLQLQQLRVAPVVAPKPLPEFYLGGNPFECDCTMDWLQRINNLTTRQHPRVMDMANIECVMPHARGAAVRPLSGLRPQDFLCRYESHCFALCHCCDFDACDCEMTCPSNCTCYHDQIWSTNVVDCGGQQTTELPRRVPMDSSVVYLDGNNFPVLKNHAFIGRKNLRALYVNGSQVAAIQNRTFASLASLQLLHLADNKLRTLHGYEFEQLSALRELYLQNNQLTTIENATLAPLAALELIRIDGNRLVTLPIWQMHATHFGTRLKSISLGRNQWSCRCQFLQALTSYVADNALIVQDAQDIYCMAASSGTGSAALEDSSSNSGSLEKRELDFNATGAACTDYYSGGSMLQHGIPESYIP
UniProt P03522, residues 17-511: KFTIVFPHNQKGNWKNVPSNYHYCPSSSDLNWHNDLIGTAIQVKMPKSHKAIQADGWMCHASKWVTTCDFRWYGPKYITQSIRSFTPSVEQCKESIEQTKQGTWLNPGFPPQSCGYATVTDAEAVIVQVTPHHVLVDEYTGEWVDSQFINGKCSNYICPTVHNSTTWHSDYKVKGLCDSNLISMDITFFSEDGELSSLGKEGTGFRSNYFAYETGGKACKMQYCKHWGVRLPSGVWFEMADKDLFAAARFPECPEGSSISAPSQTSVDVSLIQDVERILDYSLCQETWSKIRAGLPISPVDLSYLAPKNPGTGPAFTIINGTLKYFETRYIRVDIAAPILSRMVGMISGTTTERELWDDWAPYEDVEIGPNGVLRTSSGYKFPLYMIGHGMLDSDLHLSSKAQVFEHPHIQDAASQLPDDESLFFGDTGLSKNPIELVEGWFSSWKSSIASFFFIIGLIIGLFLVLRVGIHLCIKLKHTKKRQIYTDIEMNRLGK

For “VSV glycoprotein (VSV-G), on VSV-GFP virions (from UniProt P03522 17-511)”, the binding was “binds”.

Source: paper doi:10.1101/420679
